Among all 140,000 compounds or so, about 4,300 (3.1%) were called active. The inconclusive results got no clear call from the source; some entries with a clear call stand among them for comparison.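 The calls were made as follows: active = readout at or below -70, meaning at least 70% loss of cells showing the perinucleolar compartment, a nuclear body marking cancer cells; inconclusive = readout between -30 and a set limit; inactive = the rest.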
Test: High Content Assay for Compounds that inhibit the Assembly of the Perinucleolar Compartment;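 also: plate controls were DMSO wells for no effect and camptothecin positive control wells for full effect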
Conditions: PC3M PTB-GFP, PNC prevalence imaging, 16 h; at 10 µM; hits give low values
In short: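 Compounds are pinned in duplicate onto adhered PC3M cells stably expressing GFP-tagged PTB and incubated 16 h at 37 C. Cells are then fixed, nuclei stained with Hoechst, and PNC-positive cells counted.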

| SMILES | activity change (PNC), negative = inhibition |
| --- | --- |
| Cc1ccc(S(=O)(=O)N(CC(=O)NCCSC2CCCCC2)c2ccccc2F)cc1 | inconclusive: -38.6% |
| CCOC(=O)C(CC)n1nc(C)n2c(cc3sccc32)c1=O (stereo unspecified) | inconclusive: -58% |
| O=C(CN1C(=O)CSc2ccccc21)NCCC1=CCCCC1 | inconclusive: -40.4% |
| Nc1nc(NC(=O)/C=C/c2ccccc2)nn1-c1ccccc1 | inconclusive: -67.9% |
| Cc1nc2c3ccccc3nc(SCC(=O)N3CC(C)CC(C)C3)n2n1 (stereo unspecified) | inactive: 16.5% |
| CC1=Nn2c(nnc2C2CCCCC2)SC1 | inactive: 32.8% |
| CN1CCC(N(C)C(=S)Nc2ccc(SC(F)F)cc2)CC1 | inconclusive: -50.1% |
| CCn1c(SCc2nc3ccccc3nc2C)nnc1-c1cccs1 | inactive: 5.08% |
| COc1cc(C2Nc3cccc4cccc(c34)N2)cc(OC)c1O | inactive: -15.2% |
| O=C(Nc1ccccc1N1CCN(C(=O)c2ccc(Cl)cc2)CC1)c1cc2ccccc2o1 | inconclusive: -41% |
| Cc1cc(Cl)c(S(=O)(=O)Nc2ccccn2)cc1OCC(N)=O | inconclusive: -36.6% |
| CCOc1ccc(C(=O)N2CCCN(C(=O)c3ccc(OCC)cc3)CC2)cc1 | inactive: -15% |
| CCC(=O)c1cc(F)c(N2CCN(C(=O)c3ccco3)CC2)cc1C | inconclusive: -41.5% |
| O=C(NCC1COc2ccccc2O1)c1ccc(Cl)cc1 (stereo unspecified) | inactive: -3.15% |
| Cc1nc2cc3nc(C(F)(F)F)[nH]c3cc2[nH]1 | inconclusive: -41.2% |
| CC1CCN(S(=O)(=O)c2ccc3c(c2)c(=O)c(C(=O)NCc2ccco2)cn3C)CC1 | inconclusive: -72.5% |
| CCOC(=O)CSc1nnc(C)c(=O)[nH]1 | inconclusive: -49% |
| COCCCn1c(C(C)C)nc2oc3cc(OC)ccc3c(=O)c2c1=O | inconclusive: -52.4% |
| CCOC(=O)C1=C(c2ccc(OC)cc2)C(=O)c2ccccc2C1=O | inconclusive: -31.7% |
| CCOC(=O)C1=C(C)NC(=O)NC1c1cccc(O)c1 (stereo unspecified) | inconclusive: -36.9% |
| CCCCCC(=O)Nc1c(-c2ccc(OC)cc2)c(=O)c2ccccc2n1C | inconclusive: -39% |
| C/C(CCC12CC3CC(CC(C3)C1)C2)=N\NC(N)=S | inactive: 5.16% |
| COc1ccc(C(=O)Nc2cc(C(=O)NCCc3ccccc3)ccc2Cl)cc1 | inconclusive: -51.3% |

Six structures already listed, ordered by molar mass, falling.

| SMILES | activity change (PNC), negative = inhibition |
| --- | --- |
| O=C(Nc1ccccc1N1CCN(C(=O)c2ccc(Cl)cc2)CC1)c1cc2ccccc2o1 | inconclusive: -41% |
| COCCCn1c(C(C)C)nc2oc3cc(OC)ccc3c(=O)c2c1=O | inconclusive: -52.4% |
| Nc1nc(NC(=O)/C=C/c2ccccc2)nn1-c1ccccc1 | inconclusive: -67.9% |
| O=C(NCC1COc2ccccc2O1)c1ccc(Cl)cc1 (stereo unspecified) | inactive: -3.15% |
| C/C(CCC12CC3CC(CC(C3)C1)C2)=N\NC(N)=S | inactive: 5.16% |
| CC1=Nn2c(nnc2C2CCCCC2)SC1 | inactive: 32.8% |

(continued)

| SMILES | activity change (PNC), negative = inhibition |
| --- | --- |
| COc1cccc(-c2nn(-c3ccccc3)cc2/C=C\C(=O)c2cccs2)c1 | inconclusive: -74.7% |
| CCC(C)(C)n1c(=O)[nH]c2c(c1=O)CCC2 | inconclusive: -34.6% |
| CC(C)(C)NC(=O)CN(C(=O)CS(=O)CC(=O)Nc1ccc(F)cc1)c1ccc(Cl)cc1 (stereo unspecified) | inconclusive: -57.1% |
| C#CCOc1ccc(Cl)cc1/C=N/O | inconclusive: -39.2% |
| O=[N+]([O-])c1ccc(-c2cc(-c3ccncc3)nc3ccc4ccccc4c23)cc1 | inconclusive: -47.2% |
| O=C1CCCc2c1cc(C(=O)NCc1ccco1)c(=O)n2-c1ccc(Cl)cc1 | inconclusive: -39.3% |
| COc1cccc(OC)c1C(=O)Nn1c(-c2cccs2)nc2ccccc2c1=O | inconclusive: -54.4% |
| COCCNc1nc2sc3c(c2c(=O)n1Cc1ccco1)CCCCC3 | inactive: 3.69% |
| CC1CN(c2nc3ccccn3c(=O)c2/C=C(\C#N)S(=O)(=O)c2ccccc2)CC(C)O1 (stereo unspecified) | inactive: 15.2% |
| COc1ccc(-c2csc3nc(-c4cccnc4)nc(Cl)c23)cc1OC | inconclusive: -67.5% |
| CC(=O)OC1CC(n2ccc(NC(=O)c3ccccc3)nc2=O)OC1CO (stereo unspecified) | inconclusive: -54.9% |
| CC1(C)C(c2ccccc2)=NC(c2ccccc2)N1O (stereo unspecified) | inconclusive: -36.8% |
| O=C(CCCCCN1C(=O)CCC1=O)Nc1ccc(Cl)c(C(F)(F)F)c1 | inactive: -7.67% |
| CC1=CC2(C#N)C3(N=C(N)C2(C#N)C(c2ccccc2)N1)OCCO3 (stereo unspecified) | inconclusive: -44.1% |
| Cc1ccc(-c2[nH]c3ccccc3c2C(C[N+](=O)[O-])c2ccco2)cc1 (stereo unspecified) | inactive: -22.2% |
| O=C(COc1ncnc2sccc12)N1CCN(S(=O)(=O)c2ccc(Cl)cc2)CC1 | inconclusive: -63.2% |
| Cc1nnc(SCCN2C(=O)c3ccccc3C2=O)[nH]c1=O | inconclusive: -59.3% |
| CC(=O)N1CCN2C(=O)C1CCCC(=O)c1cc(C(C)C)ccc12 (stereo unspecified) | inconclusive: -51% |
| Cc1ccc(OCCOCCn2ccnc2)c(Br)c1 | inactive: 39.9% |
| CCOC(=O)C1=C(c2ccccc2)Nc2c(c(=O)n(C)c(=O)n2C)C1c1ccc(O)c(OC)c1 (stereo unspecified) | inconclusive: -42.7% |
| CCOc1ccc2nc(NC(=O)CSC3=NCCS3)sc2c1 | inconclusive: -44.5% |
| O=C1c2ccccc2C(=O)N1Nc1ccccc1 | active: -106% |
| CC(=O)N/C(=C/c1ccc(OC(F)F)cc1)C(=O)O | inactive: -25.2% |

| SMILES | activity change (PNC), negative = inhibition |
| --- | --- |
| Cc1ccc(NC(=O)c2ccco2)c(NC(=O)Cc2cccs2)c1 | inconclusive: -30.9% |
| COC(=O)c1sc(NC(=O)COc2ccccc2)nc1C | inactive: 4.36% |
| CCn1c2ccccc2c2cc(/C=N/n3cn[nH]c3=S)ccc21 | inactive: 54.8% |
| N/C(=N\OC(=O)C(c1ccccc1)c1ccccc1)c1ccccn1 | inconclusive: -58.6% |
| CC1(CCc2ccccc2)NC(=O)N(Cc2nnc(-c3ccccc3Br)o2)C1=O (stereo unspecified) | inactive: -21.7% |
| COC(=O)c1cccc(-n2nnnc2SCC(=O)Nc2cc(C)on2)c1 | inactive: 51% |
| COc1ccc2cc3c(N)nn(C(=O)C4CCC(C(C)(C)C)CC4)c3nc2c1 (stereo unspecified) | inactive: 39.2% |
| Cc1ccc(Nc2nnc(SCn3nnc4ccccc4c3=O)s2)cc1 | inconclusive: -45.2% |
| Cc1cccc(NC(=O)Nc2cc(C)on2)c1 | inconclusive: -43.6% |
| COC(=O)c1cc(CNC(=O)c2ccc(O)c(Cl)c2)ccc1OC | inconclusive: -59.6% |
| Cc1ccsc1C(=O)OCC(=O)NCc1ccc2c(c1)OCO2 | inactive: 3.58% |
| Cc1ccc2[nH]c(=O)c(-c3nc4ccccn4c3NCc3ccco3)cc2c1 | inconclusive: -37.8% |
| CC(C)(C)c1ccccc1OCCN1CCCC1 | inconclusive: -43.8% |
| CCOc1ccc(N2C(=O)CC(NCCc3ccncc3)C2=O)cc1 (stereo unspecified) | inconclusive: -32.7% |
| O=c1[nH]c(SCc2ccccc2Cl)nc2c1CCC2 | active: -101% |
| COc1cccc(NC(=O)c2cc([N+](=O)[O-])ccc2NCc2cccnc2)c1 | inconclusive: -38.3% |
| O=C(Nc1cc2c3c(c1)C1CCCC1CN3CC1CCCC21)c1ccccc1 (stereo unspecified) | inactive: 13.9% |
| CCN(CC)S(=O)(=O)c1cc(C(=O)Nc2cccnc2)ccc1Cl | inconclusive: -47.6% |
| Cc1nc(CS(=O)(=O)c2ccccc2)cc(Sc2ccccc2Cl)n1 | inconclusive: -51.2% |
| COCCn1c(-c2ccc(Cl)cc2)nc2c(c(=O)c3ccccc3n2C)c1=O | inconclusive: -36.9% |
| COc1ccc(-c2cc(C(=O)NCc3ccc(Cl)cc3)no2)cc1OC | inconclusive: -69.3% |
| COc1ccc(CCNC(=O)CCc2ccc(S(=O)(=O)NCC(C)C)cc2)cc1 | inconclusive: -67.4% |
| O=C(C(Cc1ccccc1)N1C(=O)c2ccccc2C1=O)N1CCc2ccccc21 (stereo unspecified) | active: -100% |

| SMILES | activity change (PNC), negative = inhibition |
| --- | --- |
| Cc1cc(=O)n(C)c(=O)n1CC(=O)N1CCCCCC1 | inconclusive: -44.6% |
| CC(NC(=O)Nc1ccccc1)C(c1cccs1)N1CCN(C)CC1 (stereo unspecified) | inconclusive: -37.3% |
| COC(=O)c1ccc(C(NC(=O)OCc2ccccc2)/C(F)=C/[C@@H](C)C(=O)NCc2ccc(-c3ccccc3)cc2)cc1 (stereo partly specified) | inactive: -19.1% |
| CC1CCCCN1c1nc2nonc2nc1N1CCCCC1C (stereo unspecified) | inconclusive: -33.9% |
| O=c1c2ccccc2nc(COc2ccccc2)n1/N=C/c1cc([N+](=O)[O-])ccc1O | inactive: 76.2% |
| CN(Cc1ccccc1)C(=O)CCSc1nc(-c2ccc3c(c2)OCO3)cc(C(F)(F)F)n1 | inactive: 32.4% |
| CCC(=O)N1CCN(c2ccccc2NC(=O)c2cccc(C)c2)CC1 | inconclusive: -45.6% |
| CSCCC(NS(=O)(=O)c1ccc(Cl)cc1)C(=O)OCC(=O)NC1CCCCC1 (stereo unspecified) | inactive: 1.41% |
| COCCCNCCOCCOc1c(OC)cccc1OC | inconclusive: -54.4% |
| O=C(c1ccc(Br)s1)N1CCN(C/C=C/c2ccccc2)CC1 | inactive: -3.28% |
| Cc1ccc(/C=C2/Sc3ccccc3N(CC(=O)NCCCOC(C)C)C2=O)cc1 | inconclusive: -48.1% |
| COC(=O)C1(S(=O)(=O)c2cccc3nsnc23)CC1 | inconclusive: -34.7% |
| CN1CCN(C2CCCCCC2)CC1 | active: -119% |
| Oc1ccc(N=Nc2nc(-c3ccccc3)c(-c3ccccc3)[nH]2)cc1 | inactive: -14.5% |
| CCOc1nc(-c2ccc(OC)cc2)ccc1-c1noc(C)n1 | inconclusive: -30.8% |
| CCN1C(=O)CC(NCc2ccc3c(c2)OCO3)C1=O (stereo unspecified) | inactive: 44.6% |
| COc1cc(OC)cc(C(=O)N2c3ccc(F)cc3CCC2C)c1 (stereo unspecified) | inconclusive: -46.1% |
| COCC(C)NC(=O)c1cc(-c2ccccc2OC)on1 (stereo unspecified) | inconclusive: -38.3% |
| CCOC(=O)c1ncn2c1CN(C)C(=O)c1cc(F)ccc1-2 | inactive: -2.65% |
| CCOC(=O)c1[nH]c2ccc(OCC)cc2c1NC(=O)CN1CCN(c2ccccn2)CC1 | inconclusive: -43.9% |
| CC(=O)c1cccc(-n2c(CCC(=O)O)ccc2-c2cccs2)c1 | inactive: 52.1% |
| COc1ccc(C(=O)OCCN2CCOCC2)cc1OC | inconclusive: -62.1% |
